Data as given in PubChem BioAssay AID1259308 (NCATS, 2017).
Here is an unselected part of about 59,000 reagents. About 1,510 of them (2.6%) count as active. 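Calls use total luciferase alone and ignore viability, so some active siRNAs may act by altering cell number.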 The numbers tell different reagents against one gene apart. No sequences are given here.

- Aim: 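Knock-downs that increase output of a recombinant reporter protein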 (primary screen)
- Cell system: human HEK293 embryonic kidney cells stably expressing firefly luciferase (HEK-CMV-Luc2-Hygro)
- Knock-down reagent: single siRNA against human genes, 0.8 pmol siRNA per well
- Duration: 72 h
- Measurement: 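Reporter luminescence and viable-cell signal on separate replicate plates, given as percent of non-targeting control and median/MAD z-scores, plus per-cell luciferase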
- Scale: total luciferase, z-score and total luciferase, % of control: higher = more reporter protein produced; luciferase per cell, z-score: higher = more reporter output per viable cell; viable cells, % of control: higher = more viable cells
- Active means: 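An siRNA counts as active if its total luciferase robust z-score exceeds 3; genes with two or more such siRNAs out of three were retested with fresh siRNAs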
- Calls: active = raised luciferase; inactive = no rise

Target gene | siRNA no. | total luciferase, z-score | total luciferase, % of control | luciferase per cell, z-score | viable cells, % of control | activity call
OR2A25 | 1 | 0.0437 | 82.8 | -0.159 | 96.4 | inactive
OR2A25 | 2 | -0.454 | 72.8 | -0.424 | 91 | inactive
OR2A25 | 3 | 1.18 | 105 | 0.545 | 102 | inactive
MORF4L2 | 1 | -0.68 | 68.4 | -0.395 | 84.8 | inactive
MORF4L2 | 2 | -0.463 | 72.7 | -0.164 | 84.8 | inactive
MORF4L2 | 3 | 1.81 | 118 | 2.02 | 77.3 | inactive
PNO1 | 1 | -0.511 | 71.7 | -0.722 | 96.9 | inactive
PNO1 | 2 | 0.927 | 100 | 0.425 | 100 | inactive
PNO1 | 3 | -1.89 | 44.3 | -1.84 | 80.5 | inactive
SLC23A3 | 1 | 1.73 | 116 | 1.35 | 91 | inactive
SLC23A3 | 2 | 0.0254 | 82.4 | 0.461 | 81.5 | inactive
SLC23A3 | 3 | -1.28 | 56.5 | -1.15 | 85.5 | inactive
EPHX4 | 1 | 1.33 | 108 | 1.05 | 91.7 | inactive
EPHX4 | 2 | -0.33 | 75.3 | -0.596 | 98.5 | inactive
EPHX4 | 3 | -0.708 | 67.8 | -0.596 | 88.6 | inactive
C6orf120 | 1 | -0.852 | 64.9 | -0.503 | 82.8 | inactive
C6orf120 | 2 | -1.49 | 52.2 | -1.79 | 93.3 | inactive
C6orf120 | 3 | -0.153 | 78.8 | 0.685 | 73.6 | inactive
GNE | 1 | 0.444 | 90.7 | -0.113 | 104 | inactive
GNE | 2 | -0.598 | 70 | -1.22 | 108 | inactive
GNE | 3 | -0.86 | 64.8 | -1.1 | 96.7 | inactive
PLEKHG2 | 1 | 1.35 | 109 | 1.04 | 92.4 | inactive
PLEKHG2 | 2 | -0.301 | 75.9 | -0.437 | 95.2 | inactive
PLEKHG2 | 3 | 4.73 | 176 | 2.56 | 100 | active
ARID2 | 1 | 0.0837 | 83.6 | 0.595 | 79.8 | inactive
ARID2 | 2 | -0.503 | 71.9 | 0.166 | 76.9 | inactive
ARID2 | 3 | -0.41 | 73.7 | -0.392 | 91.3 | inactive

Reagents listed above called active:
Target gene | siRNA no. | total luciferase, z-score | total luciferase, % of control | luciferase per cell, z-score | viable cells, % of control | activity call
PLEKHG2 | 3 | 4.73 | 176 | 2.56 | 100 | active

Further records:
Target gene | siRNA no. | total luciferase, z-score | total luciferase, % of control | luciferase per cell, z-score | viable cells, % of control | activity call
FBN3 | 1 | 1.4 | 110 | 1.29 | 87.2 | inactive
FBN3 | 2 | -0.608 | 69.8 | -0.797 | 96.2 | inactive
FBN3 | 3 | 0.619 | 94.2 | 2.1 | 60.6 | inactive
FKBP15 | 1 | 1.62 | 114 | 1.39 | 88.3 | inactive
FKBP15 | 2 | -1.09 | 60.3 | -1.22 | 92.8 | inactive
FKBP15 | 3 | 0.451 | 90.9 | 0.427 | 90.7 | inactive
DLX2 | 1 | -1.29 | 56.3 | -1.15 | 85 | inactive
DLX2 | 2 | 3.75 | 156 | 3.74 | 65.4 | active
DLX2 | 3 | -0.705 | 67.9 | -0.823 | 94.2 | inactive
ZNF557 | 1 | -0.33 | 75.3 | -0.0757 | 85.9 | inactive
ZNF557 | 2 | 0.0342 | 82.6 | 0.0393 | 91.3 | inactive
ZNF557 | 3 | -1.58 | 50.4 | -0.34 | 61.6 | inactive
NAA25 | 1 | 2.88 | 139 | 2.57 | 79 | inactive
NAA25 | 2 | 0.293 | 87.7 | 0.145 | 94.3 | inactive
NAA25 | 3 | -0.491 | 72.1 | -0.553 | 93.2 | inactive
FBXO3 | 1 | -0.715 | 67.7 | -1.06 | 99.9 | inactive
FBXO3 | 2 | 0.456 | 90.9 | 0.0879 | 99.3 | inactive
FBXO3 | 3 | 0.0559 | 83 | -0.786 | 114 | inactive
ZNF518A | 1 | -0.561 | 70.7 | -0.81 | 97.8 | inactive
ZNF518A | 2 | 0.472 | 91.3 | 0.634 | 86.3 | inactive
ZNF518A | 3 | 0.93 | 100 | 1.3 | 79.6 | inactive
GCG | 1 | 1.17 | 105 | 0.358 | 107 | inactive
GCG | 2 | 0.235 | 86.6 | 0.1 | 94.2 | inactive
GCG | 3 | -0.671 | 68.6 | -0.254 | 81.9 | inactive
ZNF445 | 1 | -0.103 | 79.8 | -0.327 | 97.2 | inactive
ZNF445 | 2 | -2.01 | 42 | -1.74 | 74.2 | inactive
ZNF445 | 3 | -1.28 | 56.3 | -1.1 | 84.2 | inactive
NDNF | 1 | -0.0441 | 81 | -0.245 | 96.6 | inactive
NDNF | 2 | -0.709 | 67.8 | -0.414 | 84.5 | inactive
NDNF | 3 | -0.895 | 64.1 | -1.43 | 104 | inactive
